# Laboratory results taken from article PMC12431657, “Discovery and mechanistic insights of dibenzoylmethane as a broad spectrum inhibitor of coronavirus” (PLOS Pathogens, 2025).
# Counter-ions that a name gives are not always drawn. Like-named read-outs stand apart in the source and are kept apart here. Among all 3,300 compounds or so, about 60 (2%) showed an effect of 50% or more. The list shows a part of the results. Peptide text beside a SMILES is read from it.
# System: HCoV-OC43
# Parameters: species or system RD; HTS, protection from HCoV-OC43 induced cell death, luminescent cell viability (CellCounting-Lite 2.0), inhibition rate
# Details: 24 h post infection, 1 h compound pre-incubation, 10 µM, inhibitor
Structure (SMILES),"OC43 Inhibition rate (OC43 Inhibition rate, 24 h) [%]",OC43 Inhibition rate [%]
CC(C)C[C@H](NC(=O)[C@@H](O)[C@H](N)Cc1ccccc1)C(=O)O [Bestatin],1.8,
COc1ccc2c(c1OC)CN(C)CCc1cc3c(cc1C(=O)C2)OCO3 [Allocryptopine],,0.1
C[C@@H]1CC[C@@]2(OC1)O[C@H]1C[C@H]3[C@@H]4CC=C5C[C@@H](O[C@@H]6O[C@H](CO)[C@@H](O)[C@H](O)[C@H]6O[C@@H]6O[C@@H](C)[C@H](O)[C@@H](O)[C@H]6O)CC[C@]5(C)[C@H]4CC[C@]3(C)[C@H]1[C@@H]2C [Prosapogenin A],,-12
O=C(O)C[C@@](O)(C(=O)O)[C@H](O)C(=O)O [(-)-Hydroxycitric acid],,1.5
COc1ccc([C@@H]2OC[C@H]3[C@@H]2CO[C@@H]3c2ccc3c(c2)OCO3)cc1OC [Fargesin],,1.1
C=C1C(=O)[C@]23[C@H](O)[C@H]1CC[C@H]2[C@@]12CO[C@]3(O)[C@@H](O)[C@@H]1C(C)(C)CC[C@@H]2O [Oridonin],,17.2
NC(CCC(=O)O)C(=O)O (racemic) [DL-Glutamic acid],,-0.3
CCCCCCCCCCCCCCCCC(=O)OC [Methyl heptadecanoate],,2.2
CC(=O)OCC[N+](C)(C)C [Acetylcholine (chloride)],-0.3,
CC(=O)OC[C@@]12CC[C@@H](C)[C@](C)(CCC3=CC(=O)OC3)[C@H]1C[C@H](O)C=C2CO [Blinin],,0.6
Oc1ccc(/C=C/c2cc(O)cc(O)c2)cc1 [Resveratrol],,-0.1
O=C(O)c1ccccc1O [Sodium Salicylate],-1.1,
CN(C)Cc1c[nH]c2ccccc12 [Gramine],,0.2
CC[C@]1(O)C[C@H]2CN(CCc3c([nH]c4ccccc34)[C@@](C(=O)OC)(c3cc4c(cc3OC)N(C=O)[C@H]3[C@@](O)(C(=O)OC)[C@H](OC(C)=O)[C@]5(CC)C=CCN6CC[C@]43[C@@H]65)C2)C1 [Vincristine (sulfate)],,0.3
NC[C@@H]1O[C@H](O[C@H]2[C@@H](O)[C@H](O[C@@H]3[C@@H](O)[C@H](N)C[C@H](N)[C@H]3O[C@H]3O[C@H](CO)[C@@H](O)[C@H](O)[C@H]3N)O[C@@H]2CO)[C@H](N)[C@@H](O)[C@@H]1O [Paromomycin (sulfate)],,16.9
O=C1C[C@@H](c2ccc(O)cc2)Oc2cc(O[C@@H]3O[C@H](CO)[C@@H](O)[C@H](O)[C@H]3O)ccc21 [Neoliquiritin],,2.5
COc1ccccc1OCC(O)CO (centres unmarked) [Guaifenesin],,-1.5
Cc1coc2c1C(=O)c1ccc3c(c1C2=O)CCCC3(C)C [Isotanshinone IIA],,0.1
Cc1cc(O)cc(O)c1 [Orcinol],,-0.4
COC(=O)[C@H]1[C@H]2C[C@@H]3c4[nH]c5cc(OC)ccc5c4CCN3C[C@H]2C[C@@H](OC(=O)c2cc(OC)c(OC)c(OC)c2)[C@@H]1OC [Reserpine (hydrochloride)],16.8,

# Single entries from the results shown.
# OC43 Inhibition rate (OC43 Inhibition rate, 24 h) [%] with `CC(=O)OCC[N+](C)(C)C` [Acetylcholine (chloride)] reads -0.3
# OC43 Inhibition rate [%] with `COc1ccc2c(c1OC)CN(C)CCc1cc3c(cc1C(=O)C2)OCO3` [Allocryptopine] reads 0.1
# OC43 Inhibition rate (OC43 Inhibition rate, 24 h) [%] with `CC(C)C[C@H](NC(=O)[C@@H](O)[C@H](N)Cc1ccccc1)C(=O)O` [Bestatin] reads 1.8

# Later entries.

Structure (SMILES),"OC43 Inhibition rate (OC43 Inhibition rate, 24 h) [%]",OC43 Inhibition rate [%]
CC1(C)[C@@H](O)CC[C@]2(C)[C@H]3CC=C4[C@@H]5C[C@@]6(C)C[C@H](OC6=O)[C@]5(C)CC[C@@]4(C)[C@]3(C)CC[C@@H]12 [Wilforlide A],,0.1
Oc1cc(O)c2c(c1)O[C@H](c1ccc(O)c(O)c1)[C@H](O)[C@H]2c1c(O)cc(O)c2c1O[C@H](c1ccc(O)c(O)c1)[C@H](O)C2 [Procyanidin B2],,0.4
CC(C)=CCC/C(C)=C/C=O [Citral],,0
COc1cccc2c1C(=O)c1c(O)c3c(c(O)c1C2=O)C[C@@](O)(C(C)=O)C[C@@H]3O[C@H]1C[C@H](N)[C@H](O)[C@H](C)O1 [Daunorubicin (hydrochloride)],,11.9
"O=C(O[C@@H]1Cc2c(O)cc(O)cc2O[C@@H]1c1cc(O)c(=O)c2c(O)c(O)cc([C@H]3Oc4cc(O)cc(O)c4C[C@H]3OC(=O)c3cc(O)c(O)c(O)c3)c2c1)c1cc(O)c(O)c(O)c1 [Theaflavin 3,3'-digallate]",,1.3
O=c1ccn([C@@H]2O[C@H](CO)[C@@H](O)[C@@H]2O)c(=O)[nH]1 [1-beta-D-Arabinofuranosyluracil],,0.9
COc1cc(-c2oc3cc(O)cc(O)c3c(=O)c2O)ccc1O [Isorhamnetin],,-0.5
CC1(C)CC[C@]2(C(=O)O[C@@H]3O[C@H](CO)[C@@H](O)[C@H](O)[C@H]3O)CC[C@]3(C)C(=CC[C@@H]4[C@@]5(C)CC[C@H](O[C@@H]6O[C@H](C(=O)O)[C@@H](O)[C@H](O)[C@H]6O[C@@H]6O[C@H](CO)[C@@H](O)[C@H](O)[C@H]6O)C(C)(C)[C@@H]5CC[C@]43C)[C@@H]2C1 [Ginsenoside Ro],,5.9
Oc1ccc([C@H]2Oc3cc(O)cc(O)c3C[C@H]2O)cc1 [(-)-Epiafzelechin],,4.1
O=C[C@H](O)[C@@H](O)[C@@H](O)[C@H](O)C(=O)O [D-Galacturonic acid (hydrate)],,-1.4
CC(C)[C@H](NC(=O)[C@H](CC(=O)O)NC(=O)[C@H](CCCCN)NC(=O)[C@@H](N)CCCN=C(N)N)C(=O)N[C@@H](Cc1ccc(O)cc1)C(=O)O [Thymopentin] (H-RKDVY-OH),-1,
C=C1CC[C@@H]2[C@](C)(CO)[C@H](O)CC[C@@]2(C)[C@@H]1C/C=C1/C(=O)OC[C@H]1O [Andrographolide],,1
CN1[C@@H]2CC(O)C[C@H]1[C@@H]1O[C@@H]12 (some centres unmarked) [Scopine],,-0.3
OCc1ccccc1O[C@@H]1O[C@H](CO)[C@@H](O)[C@H](O)[C@H]1O [Salicin],,0
COC(=O)C1=CO[C@@H](C)[C@H]2CN3CCc4c([nH]c5ccccc45)[C@@H]3C[C@H]12 [Ajmalicine],,-0.1
COc1cccc(CCC(=O)O)c1 [3-(3-Methoxyphenyl)propionic acid],,0.2
COc1cc(O)c(C(=O)/C=C/c2ccc(O)cc2)c(OC)c1 [Flavokawain C],,4.2
COC(=O)[C@@H]1[C@H]2C[C@H]3c4[nH]c5ccccc5c4CCN3C[C@@H]2CC[C@@H]1O [Yohimbine (Hydrochloride)],-0.8,
CC[C@H]1C[C@@H]2CN3CCc4c([nH]c5ccccc45)[C@](C(=O)OC)(C2)[C@H]13 [Coronaridine],,2.2
"CC(=O)c1ccc(O)c(O)c1 [3',4'-Dihydroxyacetophenone]",,-3.2

Structure (SMILES),"OC43 Inhibition rate (OC43 Inhibition rate, 24 h) [%]",OC43 Inhibition rate [%]
COc1cc([C@H]2OC[C@H]3[C@@H]2CO[C@H]3c2ccc(O)c(OC)c2)ccc1O [Pinoresinol],,1.9
C[C@]12CC[C@H]3[C@@H](CC[C@]4(O)C[C@@H](O)CC[C@]34C=O)[C@@]1(O)CC[C@@H]2C1=CC(=O)OC1 [Strophanthidin],,2.8
C/C1=C\C(=O)c2c(C)coc2C/C(C)=C/CC1 [Furanodienone],,0.5
COc1ccc2nccc(C(=O)O)c2c1 [Quininic acid],,0
CSCC[C@H](NC(=O)[C@H](Cc1ccccc1)NC(=O)[C@H](Cc1cnc[nH]1)NC(=O)CNC(=O)[C@@H](NC(=O)[C@H](C)NC(=O)[C@H](Cc1c[nH]c2ccccc12)NC(=O)[C@H](CCC(N)=O)NC(=O)[C@@H]1CCC(=O)N1)C(C)C)C(N)=O [Litorin],,-0.8
CC(C)=CCc1cc2c(=O)cc(-c3ccc(O)cc3)oc2cc1O [Licoflavone A],,32.7
CO[C@@H]1[C@@H](O[C@@H]2O[C@H](C)[C@@H](O[C@H]3C[C@@](C)(O)[C@@H](OC(=O)CC(C)C)[C@H](C)O3)[C@H](N(C)C)[C@H]2O)[C@@H](CC=O)C[C@@H](C)[C@@H](O)/C=C/C=C/C[C@@H](C)OC(=O)C[C@H]1OC(C)=O [Josamycin],,0.3
NC(=O)NCCC[C@H](N)C(=O)O [L-Citrulline],,-7.4
"O=c1ccc2c(O)cc(O)cc2o1 [5,7-Dihydroxycoumarin]",,0.1
O=c1oc2c(O)c(O)cc3c(=O)oc4c(O)c(O)cc1c4c23 [Ellagic acid],,-0.6
COn1cc(CC#N)c2ccccc21 [Caulilexin C],,-0.3
COc1ccc(/C=C/C(=O)/C=C(O)/C=C/c2ccc(OC)c(OC)c2)cc1OC [Dimethylcurcumin],,-1
N[C@@H](Cn1oc(=O)[nH]c1=O)C(=O)O [Quisqualic acid],,0.1
O=C(O[C@@H]1[C@@H](O)[C@H](Oc2cc(O)c(C(=O)CCc3ccccc3)c(O)c2)O[C@@H]2COC(=O)c3cc(O)c(O)c(O)c3-c3c(cc(O)c(O)c3O)C(=O)O[C@@H]12)c1cc(O)c(O)c(O)c1 [Thonningianin A],,-0.8
CN1C(=O)CC[C@H]1c1cccnc1 [Cotinine],,0.2
O=c1ccc2nccc3c4ccccc4n1c23 [Canthin-6-one],,-0.9
Cc1ccc2[nH]c3ccccc3c2c1 [3-Methylcarbazole],,13.6
NC(N)=NOCC[C@H](N)C(=O)O [L-Canavanine sulfate],,18.1
C=C(C)[C@@H]1CC[C@]2(C(=O)O)CC[C@]3(C)[C@H](CC[C@@H]4[C@@]5(C)CC[C@H](OC(=O)CC(C)(C)C(=O)O)C(C)(C)[C@@H]5CC[C@]43C)[C@@H]12 [Bevirimat],,-0.2
